No constants are given. Whether binding was seen depends on the method and setting. In cells and extracts the contact can be indirect. Some entries that bind do so weakly or less than the wild type.
T1: endogenous Unr (human (endogenous in HeLa)) (UniProt O75534)
T1 sequence: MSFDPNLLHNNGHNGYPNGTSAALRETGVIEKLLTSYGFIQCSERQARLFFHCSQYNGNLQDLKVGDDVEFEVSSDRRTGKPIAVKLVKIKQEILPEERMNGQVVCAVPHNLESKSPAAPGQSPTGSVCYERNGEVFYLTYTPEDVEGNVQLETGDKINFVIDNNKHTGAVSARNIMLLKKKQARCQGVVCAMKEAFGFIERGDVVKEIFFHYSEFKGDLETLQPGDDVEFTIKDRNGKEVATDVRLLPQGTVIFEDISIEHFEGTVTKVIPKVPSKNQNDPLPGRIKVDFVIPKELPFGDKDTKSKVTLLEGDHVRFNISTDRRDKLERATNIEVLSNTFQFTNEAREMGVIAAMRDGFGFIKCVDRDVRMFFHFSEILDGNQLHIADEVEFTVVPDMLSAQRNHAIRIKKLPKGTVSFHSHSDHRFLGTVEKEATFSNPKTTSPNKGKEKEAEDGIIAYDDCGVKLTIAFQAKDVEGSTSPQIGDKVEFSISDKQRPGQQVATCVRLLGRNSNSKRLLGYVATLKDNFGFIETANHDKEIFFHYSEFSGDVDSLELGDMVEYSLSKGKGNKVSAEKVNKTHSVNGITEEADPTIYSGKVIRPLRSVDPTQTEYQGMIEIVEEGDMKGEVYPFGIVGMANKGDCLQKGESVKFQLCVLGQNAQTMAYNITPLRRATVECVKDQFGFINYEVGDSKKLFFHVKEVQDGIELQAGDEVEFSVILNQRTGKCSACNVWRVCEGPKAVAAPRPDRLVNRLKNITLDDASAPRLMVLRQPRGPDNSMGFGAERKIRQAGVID

Sequences of proteins named here, by UniProt entry; tags and fusion partners are left off.
UniProt P11940: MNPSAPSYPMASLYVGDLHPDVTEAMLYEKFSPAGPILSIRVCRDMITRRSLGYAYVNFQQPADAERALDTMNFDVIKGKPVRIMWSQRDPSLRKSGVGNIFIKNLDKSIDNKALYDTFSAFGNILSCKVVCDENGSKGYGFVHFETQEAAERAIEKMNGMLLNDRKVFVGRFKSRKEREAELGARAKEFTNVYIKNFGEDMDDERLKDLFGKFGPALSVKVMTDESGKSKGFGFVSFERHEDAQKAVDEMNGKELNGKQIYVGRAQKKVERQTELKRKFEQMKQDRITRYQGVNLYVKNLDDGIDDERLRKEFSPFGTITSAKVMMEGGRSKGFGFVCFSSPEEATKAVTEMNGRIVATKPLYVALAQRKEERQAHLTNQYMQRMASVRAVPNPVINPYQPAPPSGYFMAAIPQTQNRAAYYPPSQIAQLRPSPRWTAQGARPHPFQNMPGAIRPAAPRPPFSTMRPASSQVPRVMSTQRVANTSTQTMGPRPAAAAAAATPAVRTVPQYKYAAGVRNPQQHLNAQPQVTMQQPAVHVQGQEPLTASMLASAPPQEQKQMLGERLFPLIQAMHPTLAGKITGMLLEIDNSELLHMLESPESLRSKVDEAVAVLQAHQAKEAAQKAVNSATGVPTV

B1: wild type Unr, in vitro translated, 35S-labelled (natural protein, human, UniProt O75534-2 1-767, looked up)
chain: MSFDPNLLHNNGHNGYPNGTSAALRETGVIEKLLTSYGFIQCSERQARLFFHCSQYNGNLQDLKVGDDVEFEVSSDRRTGKPIAVKLVKIKQEILPEERMNGQEVFYLTYTPEDVEGNVQLETGDKINFVIDNNKHTGAVSARNIMLLKKKQARCQGVVCAMKEAFGFIERGDVVKEIFFHYSEFKGDLETLQPGDDVEFTIKDRNGKEVATDVRLLPQGTVIFEDISIEHFEGTVTKVIPKVPSKNQNDPLPGRIKVDFVIPKELPFGDKDTKSKVTLLEGDHVRFNISTDRRDKLERATNIEVLSNTFQFTNEAREMGVIAAMRDGFGFIKCVDRDVRMFFHFSEILDGNQLHIADEVEFTVVPDMLSAQRNHAIRIKKLPKGTVSFHSHSDHRFLGTVEKEATFSNPKTTSPNKGKEKEAEDGIIAYDDCGVKLTIAFQAKDVEGSTSPQIGDKVEFSISDKQRPGQQVATCVRLLGRNSNSKRLLGYVATLKDNFGFIETANHDKEIFFHYSEFSGDVDSLELGDMVEYSLSKGKGNKVSAEKVNKTHSVNGITEEADPTIYSGKVIRPLRSVDPTQTEYQGMIEIVEEGDMKGEVYPFGIVGMANKGDCLQKGESVKFQLCVLGQNAQTMAYNITPLRRATVECVKDQFGFINYEVGDSKKLFFHVKEVQDGIELQAGDEVEFSVILNQRTGKCSACNVWRVCEGPKAVAAPRPDRLVNRLKNITLDDASAPRLMVLRQPRGPDNSMGFGAERKIRQAGVID
modifications: radiolabelled with [35S] methionine
notes: numbers count on: Unr protein isoform 2; Same pET21d plasmids as for the histidine-tagged recombinant Unr; also called wt Unr; CSDE1; source: in vitro transcribed/translated from pET21d plasmid (TnT Quick Coupled System, Promega), not purified

Key:
[1] = target: T1, endogenous Unr (human (endogenous in HeLa)); experiment: co-IP; IP with anti-Unr from untreated HeLa lysate in the presence of 0.1 mg/ml RNase A (30 min at room temperature before IP); western blot
[2] = target: T1, endogenous Unr (human (endogenous in HeLa)); experiment: co-IP; IP with anti-Unr (anti-CSDE1 rabbit pAb) on Dynabeads Protein A from untreated HeLa lysate, 4 hr at 4 °C, NT2 buffer; western blot
[3] = target: T2, GST-tagged PABP1 (UniProt P11940 1-636); experiment: pull-down; 2 ug GST-PABP1 (or GST) on glutathione Sepharose 4B; 10 ul 35S-labelled TnT reaction added, 1 hr at 4 °C; 50 mM Tris pH 7.5, 100 mM KCl, 0.5 mM EDTA, 0.1% NP40, 1 mM DTT, 1 mM benzamidine; autoradiography, ImageJ, normalised against inputs, relative to wt Unr on GST-PABP1; only the target purified
T2 construct: also called GST-PABP1; source: E. coli BL21(DE3) from pGEX2T, purified (glutathione Sepharose 4B)

Molecule	binding [1]	binding [2]	binding [3]
endogenous PABP1 (from UniProt P11940 1-636)	binds	binds	–
B1	–	–	binds
